The text below walks through data of article PMC6367419 (Nature Communications, 2019).

Results are given in words; binding and its absence hold for the method and conditions named. A result given as binding can be weak or reduced; the word gives no strength.

The target in the test is T1, EscN^29–446 (EPEC type III secretion system ATPase EscN, residues 29–446) (enteropathogenic Escherichia coli (EPEC) O127:H6 E2348/69) (UniProt B7UMA6).
T1 sequence: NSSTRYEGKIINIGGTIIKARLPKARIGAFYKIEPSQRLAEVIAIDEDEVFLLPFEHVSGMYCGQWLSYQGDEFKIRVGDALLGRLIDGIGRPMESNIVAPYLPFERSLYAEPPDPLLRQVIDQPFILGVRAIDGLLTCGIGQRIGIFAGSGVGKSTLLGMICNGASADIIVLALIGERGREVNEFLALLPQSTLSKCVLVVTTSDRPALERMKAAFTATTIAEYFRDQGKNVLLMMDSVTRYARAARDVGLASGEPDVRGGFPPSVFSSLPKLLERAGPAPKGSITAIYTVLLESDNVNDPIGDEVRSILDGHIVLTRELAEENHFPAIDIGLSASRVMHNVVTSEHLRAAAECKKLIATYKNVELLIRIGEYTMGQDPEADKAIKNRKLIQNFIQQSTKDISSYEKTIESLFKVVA
Put plainly: co-sedimentation; both purified.
Take EscO^1–125 Arg12Glu/Arg15Glu: the binding entry is reported as “binds”.

Take EscO^1–125 Lys110Glu/Lys114Glu: the binding entry is “no binding (tested: EscN at 2.0 mg/mL, and EscO at 0.7 mg/mL)”. In the case of “EscO^1–125 (full-length EPEC central stalk protein EscO) (from UniProt Q8VNS0)” it was “binds”.
